# Test results as given in the supplement of paper PMC11060735.
# Counter-ions that a name gives are not always drawn. ± gives the standard deviation of the averaged measurements. In all, about 1,800 compounds were measured (“GFP- (p16Ink4a-) cell count relative to negative-control wells”: median about 0.99, lowest 2% from about 0.5 on). The list shows a part of the results.
# Test system: mouse p16Ink4a+/- lung fibroblasts (INKBRITE, bleomycin-injured)
# Assay: GFP- (p16Ink4a-) cell count relative to negative-control wells (fold of vehicle); higher = more p16Ink4a- cells surviving
# Settings: 1 µM; 3 days
row,SMILES,GFP-
1,OCc1ccc(-c2ccc(-c3ccc(CO)s3)o2)s1,0.955
2,NS(=O)(=O)c1cc2c(cc1Cl)NCNS2(=O)=O [Hydrochlorothiazide],1.06
3,NCC(=O)Nc1ccc(-n2nc(C(F)(F)F)cc2-c2ccc3c(ccc4ccccc43)c2)cc1,1.1
4,C1N2CN3CN1CN(C2)C3 [Hexamethylenetetramine],1.03
5,CC[C@H](c1ccc(O)cc1)[C@@H](CC)c1ccc(O)cc1 [Hexestrol],1.07
6,NC1=N[C@@]2(c3cc(NC(=O)c4ccc(F)cn4)ccc3F)COC[C@H]2CS1,0.991
7,Cc1nccn1CC1CCc2c(c3ccccc3n2C)C1=O (centres undefined) [Ondansetron],1.06
8,Oc1cccc(-c2nc(N3CCOCC3)c3oc4ncccc4c3n2)c1,0.8
9,COc1cc2c(cc1O)CC[C@@H]1[C@@H]2CC[C@]2(C)[C@@H](O)CC[C@@H]12 [2-Methoxyestradiol],0.777 ± 0.2
10,O=C1c2c(O)cc(O)cc2O[C@H](c2ccc(O)c(O)c2)[C@H]1O [Taxifolin (Dihydroquercetin)],1.02
11,CCC[C@@H]1O[C@@H]2C[C@H]3[C@@H]4CCC5=CC(=O)C=C[C@]5(C)[C@H]4[C@@H](O)C[C@]3(C)[C@]2(C(=O)CO)O1 [Budesonide],1.06
12,C=C1C(=O)O[C@H]2[C@H]1CC/C(C)=C\CC[C@@]1(C)O[C@@H]21 [(-)-Parthenolide],1.06
13,CC(C)(C)/[N+]([O-])=C/c1ccc(S(=O)(=O)O)cc1S(=O)(=O)O,1
14,Cc1cccc(Nc2ccncc2S(=O)(=O)NC(=O)NC(C)C)c1 [Torasemide],1.04
15,CCCNC(=O)Nc1ccc(Oc2ncnc3cc(OC)c(OC)cc23)cc1Cl,0.97
16,CCCCCCCCCC(=O)N[C@@H](Cc1c[nH]c2ccccc12)C(=O)N[C@H](CC(N)=O)C(=O)N[C@@H](CC(=O)O)C(=O)N[C@@H]1C(=O)NCC(=O)N[C@H](CCCN)C(=O)N[C@@H](CC(=O)O)C(=O)N[C@@H](C)C(=O)N[C@@H](CC(=O)O)C(=O)NCC(=O)N[C@H](CO)C(=O)N[C@@H]([C@@H](C)CC(=O)O)C(=O)N[C@@H](CC(=O)c2ccccc2N)C(=O)O[C@@H]1C [Daptomycin],1.09
17,O=C(O[C@H]1CN2CCC1CC2)N1CCc2ccccc2[C@@H]1c1ccccc1 [Solifenacin],1.02
18,c1ccc2c(CCNc3ccc(Nc4ccncc4)cc3)c[nH]c2c1 [Serdemetan],1.06
19,CCOC(=O)CC(=O)N1CCSC1COc1ccccc1OC (centres undefined) [Moguisteine],1.1
20,O=C(NC(Cc1cc(O)nc2ccccc12)C(=O)O)c1ccc(Cl)cc1 (centres undefined) [Rebamipide],1.02
21,CN(C)CCOc1ccc(/C(=C(/CCCl)c2ccccc2)c2ccccc2)cc1 [Toremifene],0.996
22,Cc1c(C(=O)NN2CCCCC2)nn(-c2ccc(Cl)cc2Cl)c1-c1ccc(Cl)cc1 [Rimonabant],1.01
23,O[C@@H]1CO[C@H]2[C@@H]1OC[C@@H]2O [Isosorbide],0.881
24,"CO[C@H]1C[C@@H]2CC[C@@H](C)[C@@](O)(O2)C(=O)C(=O)N2CCCC[C@H]2C(=O)O[C@H]([C@H](C)C[C@@H]2CC[C@@H](OP(C)(C)=O)[C@H](OC)C2)CC(=O)[C@H](C)/C=C(\C)[C@@H](O)[C@@H](OC)C(=O)[C@H](C)C[C@H](C)/C=C/C=C/C=C/1C [Ridaforolimus, Deforolimus]",0.681
25,CC(C)(C)OC(=O)N[C@H]1CCCCC/C=C\[C@@H]2C[C@@]2(C(=O)NS(=O)(=O)C2CC2)NC(=O)[C@@H]2C[C@@H](OC(=O)N3Cc4cccc(F)c4C3)CN2C1=O [Danoprevir],1.12

row,SMILES,GFP-
1,COc1cc2ncnc(Nc3cccc(Cl)c3)c2cc1OC,1.01
2,COc1ccc(C[C@H](NC(=O)[C@H](C)NC(=O)CN2CCOCC2)C(=O)N[C@@H](Cc2ccccc2)C(=O)[C@]2(C)CO2)cc1,0.791
3,CCOc1ccn(-c2ccc(F)cc2)c(=O)c1C(=O)Nc1ccc(Oc2ccnc(N)c2Cl)c(F)c1,0.736
4,Nc1ccn([C@@H]2CS[C@H](CO)O2)c(=O)n1 [Lamivudine],1
5,C[C@]12CCC3=C4CCC(=O)C=C4CC[C@H]3[C@@H]1CC[C@@]2(O)CC#N [Dienogest],0.899
6,CN1CCN(CCCN2c3ccccc3Sc3ccc(C(F)(F)F)cc32)CC1 [Trifluoperazine],0.971
7,CC(C)NCC(O)COc1ccc(CCOCC2CC2)cc1 (centres undefined) [Betaxolol],0.978
8,O=C1CC(=O)c2c(Cl)c(Cl)c(Cl)c(Cl)c21,1.09
9,CO/C(O)=C1\C(C)=NC(C)=C(C(=O)OCCN(C)Cc2ccccc2)C1c1cccc([N+](=O)[O-])c1 (centres undefined) [Nicardipine],1.01
10,NC(Cc1c[nH]c2ccc(O)cc12)C(=O)O (centres undefined) [5-hydroxytryptophan (5-HTP)],1.07
11,COC1=C(OC)C(=O)C(CCCCCCCCCCO)=C(C)C1=O [Idebenone],0.993
12,Cn1c(N2CCCCS2(=O)=O)nc(C(=O)NCc2ccc(F)cc2)c(O)c1=O,0.561
13,CCc1ccc(OCc2ccccc2C(=O)Nc2ccc3nc(C)cc(N)c3c2)cc1,0.975
14,C[C@H](N[C@@H](CCc1ccccc1)C(=O)O)C(=O)N1CCC[C@H]1C(=O)O [Enalaprilat],1.02
15,Cc1nnc(C(C)C)n1C1CC2CCC(C1)N2CC[C@H](NC(=O)C1CCC(F)(F)CC1)c1ccccc1 (some centres undefined) [Maraviroc],1.17
16,CC(C)C[C@@H](C(=O)N[C@H](C(=O)OC1CCCC1)c1ccccc1)[C@H](O)C(=O)NO [Tosedostat],1.08
17,C#Cc1cccc(Nc2ncnc3cc4c(cc23)OCCOCCOCCO4)c1 [Icotinib],0.916
18,"O=Nc1c(-c2c(O)[nH]c3cc(Br)ccc23)[nH]c2ccccc12 [(3e)-6'-Bromo-2,3'-Biindole-2',3(1h,1'h)-Dione 3-Oxime]",1.23
19,CC(=O)C1=C(O)C=C2Oc3c(C(C)=O)c(O)c(C)c(O)c3[C@]2(C)C1=O [(+)-Usniacin],0.95
20,CC(=O)Nc1nc(C)c(-c2ccc(Cl)c(S(=O)(=O)NCCO)c2)s1,0.916
21,Cc1ccc(Cl)cc1N(CC(=O)Nc1c(F)cccc1F)S(C)(=O)=O,1.06
22,O=C1NC(=O)/C(=C/c2cccc(C(F)(F)F)c2)S1,0.979 ± 0.056
23,CC(C)[C@H](N)C(=O)OCC(CO)OCN1C=NC2C(=O)NC(N)=NC21 (some centres undefined) [Valganciclovir HCl],0.961
24,CCCCN1CCCCC1C(=O)Nc1c(C)cccc1C (centres undefined) [Bupivacaine],1.13
25,c1ccc(-c2[nH]ncc2-c2ccnc3ccccc23)nc1 [4-(3-Pyridin-2-Yl-1h-Pyrazol-4-Yl)Quinoline],1.27

# For convenience, part of the list above.
row,SMILES,GFP-
4,Nc1ccn([C@@H]2CS[C@H](CO)O2)c(=O)n1 [Lamivudine],1
5,C[C@]12CCC3=C4CCC(=O)C=C4CC[C@H]3[C@@H]1CC[C@@]2(O)CC#N [Dienogest],0.899
6,CN1CCN(CCCN2c3ccccc3Sc3ccc(C(F)(F)F)cc32)CC1 [Trifluoperazine],0.971
7,CC(C)NCC(O)COc1ccc(CCOCC2CC2)cc1 (centres undefined) [Betaxolol],0.978
8,O=C1CC(=O)c2c(Cl)c(Cl)c(Cl)c(Cl)c21,1.09
9,CO/C(O)=C1\C(C)=NC(C)=C(C(=O)OCCN(C)Cc2ccccc2)C1c1cccc([N+](=O)[O-])c1 (centres undefined) [Nicardipine],1.01
10,NC(Cc1c[nH]c2ccc(O)cc12)C(=O)O (centres undefined) [5-hydroxytryptophan (5-HTP)],1.07
11,COC1=C(OC)C(=O)C(CCCCCCCCCCO)=C(C)C1=O [Idebenone],0.993
12,Cn1c(N2CCCCS2(=O)=O)nc(C(=O)NCc2ccc(F)cc2)c(O)c1=O,0.561
13,CCc1ccc(OCc2ccccc2C(=O)Nc2ccc3nc(C)cc(N)c3c2)cc1,0.975
14,C[C@H](N[C@@H](CCc1ccccc1)C(=O)O)C(=O)N1CCC[C@H]1C(=O)O [Enalaprilat],1.02
15,Cc1nnc(C(C)C)n1C1CC2CCC(C1)N2CC[C@H](NC(=O)C1CCC(F)(F)CC1)c1ccccc1 (some centres undefined) [Maraviroc],1.17
16,CC(C)C[C@@H](C(=O)N[C@H](C(=O)OC1CCCC1)c1ccccc1)[C@H](O)C(=O)NO [Tosedostat],1.08
17,C#Cc1cccc(Nc2ncnc3cc4c(cc23)OCCOCCOCCO4)c1 [Icotinib],0.916
18,"O=Nc1c(-c2c(O)[nH]c3cc(Br)ccc23)[nH]c2ccccc12 [(3e)-6'-Bromo-2,3'-Biindole-2',3(1h,1'h)-Dione 3-Oxime]",1.23
19,CC(=O)C1=C(O)C=C2Oc3c(C(C)=O)c(O)c(C)c(O)c3[C@]2(C)C1=O [(+)-Usniacin],0.95
20,CC(=O)Nc1nc(C)c(-c2ccc(Cl)c(S(=O)(=O)NCCO)c2)s1,0.916
21,Cc1ccc(Cl)cc1N(CC(=O)Nc1c(F)cccc1F)S(C)(=O)=O,1.06
22,O=C1NC(=O)/C(=C/c2cccc(C(F)(F)F)c2)S1,0.979 ± 0.056
23,CC(C)[C@H](N)C(=O)OCC(CO)OCN1C=NC2C(=O)NC(N)=NC21 (some centres undefined) [Valganciclovir HCl],0.961
24,CCCCN1CCCCC1C(=O)Nc1c(C)cccc1C (centres undefined) [Bupivacaine],1.13
25,c1ccc(-c2[nH]ncc2-c2ccnc3ccccc23)nc1 [4-(3-Pyridin-2-Yl-1h-Pyrazol-4-Yl)Quinoline],1.27

# Following part.

row,SMILES,GFP-
1,CC[C@H](C)C(=O)O[C@H]1C[C@@H](C)C=C2C=C[C@H](C)[C@H](CC[C@@H]3C[C@@H](O)CC(=O)O3)[C@H]21 [Lovastatin],0.811
2,N#C[C@@H]1C[C@@H]2C[C@@H]2N1C(=O)[C@@H](N)C12CC3CC(CC(O)(C3)C1)C2 [Saxagliptin],0.839
3,CC(C)c1cc(C(C)C)c(CC(=O)NS(=O)(=O)Oc2c(C(C)C)cccc2C(C)C)c(C(C)C)c1 [Avasimibe],0.842
4,C[C@@H]1C[C@H]2[C@@H]3CCC4=CC(=O)C=C[C@]4(C)[C@@]3(Cl)[C@@H](O)C[C@]2(C)[C@@]1(OC(=O)c1ccco1)C(=O)CCl [Mometasone Furoate],0.947
5,COc1ccc(O)cc1 [Mequinol],0.927
6,Cc1cc2c(s1)Nc1ccccc1N=C2N1CCN(C)CC1 [Olanzapine],0.909
7,COc1ccccc1N1CCN(CCCNc2cc(=O)n(C)c(=O)n2C)CC1 [Urapidil Hydrochloride],0.921
8,O=C(Nc1cc2cc[nH]c2cn1)c1ccccc1,1.09
9,COc1ccc2cc([C@H](C)C(=O)O)ccc2c1 [Naproxen],1.07
10,O=S(=O)(O)NC1CCCCC1 [Cyclamic Acid],1.21
11,CCOC(=O)[C@H](CCc1ccccc1)N[C@H]1CS[C@H](c2cccs2)CN(CC(=O)O)C1=O [Temocapril],1.03
12,CN[C@H](CC(=O)O)C(=O)O [N-methyl-d-aspartic Acid],1.09
13,O=C(N/N=C/c1ccc([N+](=O)[O-])o1)c1ccc(O)cc1 [Nifuroxazide],0.93
14,O=C(c1ccc(Nc2nccc(-c3cc4ccccc4s3)n2)cc1)N1CCC(N2CCCC2)CC1 [IKK-16 (IKK Inhibitor VII)],0.887
15,"CNC(=O)CN(CCN(CCN(CC(=O)O)CC(=O)NC)CC(=O)O)CC(=O)O [Omniscan, Gadodiamide hydrate]",0.702
16,Cc1cnc(C(=O)O)c[n+]1[O-] [Acipimox],1.02
17,O=C1NC(=O)/C(=C\c2ccc(-c3ccc(F)cc3)o2)S1,0.981
18,Cc1cc(OCc2nnc(SC3CCCC3)n2-c2cccnc2)ccc1-c1ccc(S(C)(=O)=O)cc1,0.67
19,CC(C)Oc1ccc2c(=O)c(-c3ccccc3)coc2c1 [Ipriflavone],1.09
20,C[N+](C)(C)C[C@H](O)CC(=O)O [L-carnitine],1.05
21,Nc1ncnc2[nH]cnc12 [Adenine],1.07
22,CO[C@@H]1[C@@H](O[C@H]2O[C@@H](C)[C@H](O[C@@H]3C[C@](C)(O)[C@H](O)[C@@H](C)O3)[C@@H](N(C)C)[C@@H]2O)[C@@H](CC=O)C[C@@H](C)[C@@H](O[C@H]2CC[C@H](N(C)C)[C@H](C)O2)/C=C/C=C/C[C@@H](C)OC(=O)C[C@H]1O [Spiramycin],0.986
23,CCOC(CN1CCN(CC(C)C(=O)c2ccccc2)CC1)c1ccccc1 (centres undefined) [Eprazinone],1.15
24,CC(C)(C#N)c1ccc(N2C(=O)OCc3cnc4ccc(-c5cnc6ccccc6c5)cc4c32)cc1,0.688
